PubChem BioAssay AID504791 | Drosophila RNAi Screening Center – 2011

Purpose: 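Genes whose knock-down strengthens or weakens small-RNA reporter silencing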 (primary screen)
Cells: Drosophila S2-derived reporter cells
Reagent: long dsRNA against Drosophila genes, about 150-250 ng dsRNA per well (siRNA assay); about 80-120 ng (miRNA assay)
Timing: about 5 days (siRNA assay); about 4 days (miRNA assay)
Treatment: copper sulfate induction of reporters: 25 µM (siRNA assay); 200 mM stated (miRNA assay), 1-2 days before reading
Read-out: 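Dual luciferase assay: Renilla to firefly signal ratio in each well, scaled to the mean ratio of its plate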
Units: stable assay Renilla, run 1 in luminescence; stable assay firefly, run 1 in luminescence
Hit rule: 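a well was a first-pass pick when its plate-scaled ratio rose above 1.5 (siRNA assay) or 1.6 (miRNA assay), or dropped below 0.6; a gene counted only if two separate dsRNAs agreed on retest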
The deposit covers about 23,000 reagents; below is an unselected part of those with a known target gene and a result. In the full data, 199 (0.86%) got an active call. 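Plate-scaled ratios behind the calls are not deposited; printed light signals are raw; many rows marked increased or decreased are still called inactive.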 Names joined by + are all predicted targets of the reagent. The record does not give: the direction of the score.

For sPLA2 (secretory Phospholipase A2) [DRSC06041] the deposit lists stable assay Renilla, run 1 = 5883; stable assay firefly, run 1 = 3.02e5; inactive.
CG15537 [DRSC15073] scored stable assay Renilla, run 1 = 7543; stable assay firefly, run 1 = 6.30e5; inactive.
CG31075 [DRSC16016] scored stable assay Renilla, run 1 = 6763; stable assay firefly, run 1 = 3.46e5; inactive.
After knock-down of l(3)neo43 (lethal (3) neo43) [DRSC14988] the results were stable assay Renilla, run 1 = 6898; stable assay firefly, run 1 = 3.46e5; inactive.
mRpS35 (mitochondrial ribosomal protein S35) [DRSC08551] gave stable assay Renilla, run 1 = 7052; stable assay firefly, run 1 = 4.27e5; inactive.
Against su(r) (suppressor of rudimentary) [DRSC18705] the deposit lists stable assay Renilla, run 1 = 7730; stable assay firefly, run 1 = 4.17e5; inactive.
Depletion of CG12725 [DRSC19501] came out at: stable assay Renilla, run 1 = 4903; stable assay firefly, run 1 = 4.09e5; inactive.
Against fng (fringe) [DRSC11455] the deposit lists stable assay Renilla, run 1 = 5963; stable assay firefly, run 1 = 3.93e5; inactive.
After knock-down of fng (fringe) [DRSC11887] the results were stable assay Renilla, run 1 = 8950; stable assay firefly, run 1 = 3.39e5; inactive.
After knock-down of fng (fringe) [DRSC21935], the screen gave stable assay Renilla, run 1 = 9318; stable assay firefly, run 1 = 6.06e5; inactive.
Against CG8539 [DRSC10988] the deposit lists stable assay Renilla, run 1 = 7538; stable assay firefly, run 1 = 4.23e5; inactive.
After knock-down of CG8539 [DRSC21798] the results were stable assay Renilla, run 1 = 10025; stable assay firefly, run 1 = 5.25e5; inactive.
After knock-down of HemK2 + Snapin [DRSC00736], the screen gave stable assay Renilla, run 1 = 12419; stable assay firefly, run 1 = 8.19e5; inactive.
After knock-down of HemK2 + Snapin [DRSC00737], the screen gave stable assay Renilla, run 1 = 8155; stable assay firefly, run 1 = 4.79e5; inactive.
With knock-down of RpS6 (Ribosomal protein S6) [DRSC18712] the results were miRNA reporter change reporter ratio lowered past the hit cutoff; stable assay Renilla, run 1 = 6363; stable assay firefly, run 1 = 3.34e5; active.
Knock-down of CG8160 [DRSC07086] came out at: stable assay Renilla, run 1 = 4344; stable assay firefly, run 1 = 3.37e5; inactive.
Against CG8160 [DRSC21434], the values are stable assay Renilla, run 1 = 8926; stable assay firefly, run 1 = 5.13e5; inactive.
Knock-down of mrj [DRSC22592] gave: stable assay Renilla, run 1 = 5882; stable assay firefly, run 1 = 6.26e5; inactive.
With knock-down of dnt (doughnut on 2) [DRSC03522] the results were stable assay Renilla, run 1 = 3.63e5; stable assay firefly, run 1 = 1.22e6; inactive.
For CG2129 [DRSC18209], the values are stable assay Renilla, run 1 = 9617; stable assay firefly, run 1 = 5.14e5; inactive.
vih (vihar) [DRSC09778] gave stable assay Renilla, run 1 = 8214; stable assay firefly, run 1 = 5.07e5; inactive.
Ser12 (Serine protease 12) [DRSC00786] showed stable assay Renilla, run 1 = 7638; stable assay firefly, run 1 = 3.36e5; inactive.
For Dora (Dorado) [DRSC19614], the values are stable assay Renilla, run 1 = 5079; stable assay firefly, run 1 = 3.54e5; inactive.
With knock-down of Dora (Dorado) [DRSC19781] the results were stable assay Renilla, run 1 = 4883; stable assay firefly, run 1 = 3.93e5; inactive.
Dora (Dorado) [DRSC20034] scored stable assay Renilla, run 1 = 4932; stable assay firefly, run 1 = 3.89e5; inactive.
Against Dora (Dorado) [DRSC20035], the entry reads stable assay Renilla, run 1 = 6094; stable assay firefly, run 1 = 3.56e5; inactive.
With knock-down of Osi1 (Osiris 1) [DRSC12271], the record shows stable assay Renilla, run 1 = 6231; stable assay firefly, run 1 = 3.65e5; inactive.
For Mps1 (Monopolar spindle 1) [DRSC16273] the deposit lists stable assay Renilla, run 1 = 11139; stable assay firefly, run 1 = 3.96e5; inactive.
For CG10171 [DRSC09711], the entry reads stable assay Renilla, run 1 = 8262; stable assay firefly, run 1 = 5.62e5; inactive.
Knock-down of dgt4 (dim gamma-tubulin 4) [DRSC18659] resulted in: stable assay Renilla, run 1 = 4839; stable assay firefly, run 1 = 2.60e5; inactive.
For CG14797 [DRSC17955] the deposit lists stable assay Renilla, run 1 = 7398; stable assay firefly, run 1 = 3.92e5; inactive.
For CG17121 [DRSC15176] the deposit lists stable assay Renilla, run 1 = 6792; stable assay firefly, run 1 = 2.87e5; inactive.
Depletion of CG6204 [DRSC15991] gave: stable assay Renilla, run 1 = 9160; stable assay firefly, run 1 = 4.09e5; inactive.
For CG12507 [DRSC19463] the deposit lists stable assay Renilla, run 1 = 5355; stable assay firefly, run 1 = 3.55e5; inactive.
After knock-down of MBD-R2 [DRSC14180] the results were stable assay Renilla, run 1 = 12502; stable assay firefly, run 1 = 5.07e5; inactive.

An excerpt from above, limited to “stable assay Renilla, run 1”.
l(3)neo43 (lethal (3) neo43) [DRSC14988]: 6898
mRpS35 (mitochondrial ribosomal protein S35) [DRSC08551]: 7052
su(r) (suppressor of rudimentary) [DRSC18705]: 7730
CG12725 [DRSC19501]: 4903
